Reference: PubChem BioAssay AID1508597 (Cure First, 2020)

Aim: 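Genes whose silencing sensitises or protects ovarian cancer cells against rucaparib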 (primary screen)
Cells: human ovarian carcinoma lines grown from tumours: OCI-P5x (papillary serous) and OCI-C5x (clear cell)
Reagents: siRNA pool against human genes, 1.25 pmol siRNA per well
Duration: 72 h or 96 h, depending on the cell culture
Treatment: rucaparib 20 µM (about IC30) or vehicle, present until read-out
Rucaparib or vehicle: Vehicle
Cell line: OCI-C5x (clear cell)
Measurement: 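ATP luminescence measured at 72 or 96 h according to the culture, then normalised and expressed as percent viability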
Reading the numbers: viability, normalised: higher = more viable cells remaining
Call rule: 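Active when normalised viability falls below 80 percent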
Calls: active = viability under 80%; inactive = viability 80% or more
Shown is an unselected part of the about 2,100 reagents, in one setting of the screen. 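Calls flag viability under 80% in either arm, not effects specific to rucaparib; the reference for percent is not stated.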 Entries without a mark were called inactive. A reagent listed more than once was tested more than once; the source does not tell the runs apart. No sequences are given here. The record does not give: the 100% reference.

target	technical replicate	viability, normalised (%)
MAP3K12	1	75.2 (active)
MAP3K12	2	68.1 (active)
MAP3K12	3	80.1
IKBKB	1	43.6 (active)
IKBKB	2	54.2 (active)
IKBKB	3	46.9 (active)
DNMT3L	1	63.7 (active)
DNMT3L	2	60.3 (active)
DNMT3L	3	54.8 (active)
DDX54	1	33 (active)
DDX54	2	30.7 (active)
DDX54	3	32.5 (active)
DDX5	1	36.6 (active)
DDX5	1	48.1 (active)
DDX5	2	75.4 (active)
DDX5	2	36.4 (active)
DDX5	3	59.5 (active)
DDX5	3	51.2 (active)
RBBP5	1	42 (active)
RBBP5	2	45.8 (active)
RBBP5	3	43.5 (active)
MRE11	1	67.8 (active)
MRE11	2	50.4 (active)
MRE11	3	38.6 (active)
AUNIP	1	15.7 (active)
AUNIP	2	12 (active)
AUNIP	3	10 (active)
MAPK8	1	87.1
MAPK8	2	67 (active)
MAPK8	3	59.3 (active)
PBK	1	63.4 (active)
PBK	1	46.2 (active)
PBK	2	52.8 (active)
PBK	2	69 (active)
PBK	3	37.5 (active)
PBK	3	54.4 (active)
MYO3B	1	67.6 (active)
MYO3B	1	55.6 (active)
MYO3B	2	62.4 (active)
MYO3B	2	61.6 (active)
MYO3B	3	78.7 (active)
MYO3B	3	59.5 (active)

Continued; the last 9 above are carried over.
target	technical replicate	viability, normalised (%)
PBK	2	69 (active)
PBK	3	37.5 (active)
PBK	3	54.4 (active)
MYO3B	1	67.6 (active)
MYO3B	1	55.6 (active)
MYO3B	2	62.4 (active)
MYO3B	2	61.6 (active)
MYO3B	3	78.7 (active)
MYO3B	3	59.5 (active)
FER	1	45.5 (active)
FER	2	41.5 (active)
FER	3	39 (active)
PKD2L1	1	49.8 (active)
PKD2L1	2	54.5 (active)
PKD2L1	3	34 (active)
PIAS2	1	54.9 (active)
PIAS2	2	41.6 (active)
PIAS2	3	73.2 (active)
NME6	1	60.9 (active)
NME6	1	42 (active)
NME6	2	43.9 (active)
NME6	2	64 (active)
NME6	3	50.6 (active)
NME6	3	66.5 (active)
DDB1	1	30.5 (active)
DDB1	1	45.3 (active)
DDB1	2	34.3 (active)
DDB1	2	44.6 (active)
DDB1	3	56.3 (active)
DDB1	3	37.6 (active)
BRD3	1	41.1 (active)
BRD3	1	8.59 (active)
BRD3	2	29 (active)
BRD3	2	36.3 (active)
BRD3	3	18.3 (active)
BRD3	3	35 (active)
ORC1	1	51.1 (active)
ORC1	2	51.9 (active)
ORC1	3	47.4 (active)
VCAM1	1	17.8 (active)
VCAM1	2	55.6 (active)
VCAM1	3	45.8 (active)
